No constants are given. Whether binding was seen depends on the method and setting. In cells and extracts the contact can be indirect. Some binding calls cover weakened binding; strength is not graded here.
Target: T1, CREPT, endogenous in human colon cancer cells (human (endogenous in HCT116 and DLD-1)) (UniProt Q9NQG5)
T1 sequence: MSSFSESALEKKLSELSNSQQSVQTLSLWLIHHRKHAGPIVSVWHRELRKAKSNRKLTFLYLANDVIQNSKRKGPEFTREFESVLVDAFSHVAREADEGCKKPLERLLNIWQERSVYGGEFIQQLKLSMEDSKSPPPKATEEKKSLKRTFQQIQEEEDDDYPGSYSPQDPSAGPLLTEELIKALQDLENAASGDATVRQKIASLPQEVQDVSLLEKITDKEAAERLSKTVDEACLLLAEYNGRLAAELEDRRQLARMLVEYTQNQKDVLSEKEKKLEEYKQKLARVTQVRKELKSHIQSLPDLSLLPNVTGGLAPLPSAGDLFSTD
Experiment: co-IP; endogenous proteins, anti-CREPT antibody, RIPA lysis; cells released from double thymidine block for the indicated times

Chains of the proteins cited; added tags and fusions are not shown.
UniProt P01106: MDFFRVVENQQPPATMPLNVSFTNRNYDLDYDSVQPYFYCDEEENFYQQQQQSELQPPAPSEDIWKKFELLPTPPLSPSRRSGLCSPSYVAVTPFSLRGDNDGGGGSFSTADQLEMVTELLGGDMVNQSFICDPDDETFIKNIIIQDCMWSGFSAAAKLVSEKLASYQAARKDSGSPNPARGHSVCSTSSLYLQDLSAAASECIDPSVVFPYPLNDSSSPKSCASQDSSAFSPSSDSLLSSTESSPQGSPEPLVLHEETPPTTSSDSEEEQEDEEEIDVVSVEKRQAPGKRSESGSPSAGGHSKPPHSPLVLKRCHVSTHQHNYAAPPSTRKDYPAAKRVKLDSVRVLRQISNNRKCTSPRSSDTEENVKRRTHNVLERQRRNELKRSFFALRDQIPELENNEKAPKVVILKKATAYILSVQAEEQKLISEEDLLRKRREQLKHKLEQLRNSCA

binding: binds
Substance: MYC, endogenous in human colon cancer cells (from UniProt P01106 1-454)

Reference: PMC11730240
